Source: publication PMC4075450

T1: ARF6 (auxin response factor 6), yeast two-hybrid fusion (Arabidopsis thaliana) (UniProt Q9ZTX8)
T1 sequence: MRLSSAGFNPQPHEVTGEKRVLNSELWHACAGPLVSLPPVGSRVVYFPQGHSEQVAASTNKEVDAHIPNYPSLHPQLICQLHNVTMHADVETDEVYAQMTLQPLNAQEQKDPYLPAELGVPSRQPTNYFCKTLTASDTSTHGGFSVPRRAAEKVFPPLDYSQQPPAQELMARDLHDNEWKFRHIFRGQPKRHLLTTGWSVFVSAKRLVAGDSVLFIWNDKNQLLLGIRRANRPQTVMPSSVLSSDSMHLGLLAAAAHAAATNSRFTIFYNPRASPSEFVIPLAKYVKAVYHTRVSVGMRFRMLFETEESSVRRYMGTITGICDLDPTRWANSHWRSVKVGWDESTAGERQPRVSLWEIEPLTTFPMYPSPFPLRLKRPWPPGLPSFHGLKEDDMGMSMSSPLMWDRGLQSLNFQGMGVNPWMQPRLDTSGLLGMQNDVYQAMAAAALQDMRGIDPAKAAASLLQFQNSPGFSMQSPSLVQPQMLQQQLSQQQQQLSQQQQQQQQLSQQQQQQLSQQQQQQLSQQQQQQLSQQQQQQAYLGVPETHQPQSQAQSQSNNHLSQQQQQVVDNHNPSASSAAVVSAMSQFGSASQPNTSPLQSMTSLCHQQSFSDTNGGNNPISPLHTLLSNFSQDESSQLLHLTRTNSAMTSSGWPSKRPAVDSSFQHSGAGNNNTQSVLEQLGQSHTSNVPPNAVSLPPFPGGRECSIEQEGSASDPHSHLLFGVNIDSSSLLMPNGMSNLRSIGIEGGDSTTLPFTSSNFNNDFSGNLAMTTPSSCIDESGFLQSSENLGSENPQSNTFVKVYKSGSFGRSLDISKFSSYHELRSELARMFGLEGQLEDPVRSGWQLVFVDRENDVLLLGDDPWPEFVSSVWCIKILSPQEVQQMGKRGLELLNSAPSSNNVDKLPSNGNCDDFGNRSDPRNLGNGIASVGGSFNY


Assays:
Assay in all cases: two-hybrid; yeast; clones grown on synthetic dropout medium without histidine (−HIS) plus 1 mM 3AT (1 or 5 mM 3AT for the ARF6 fragments); activation domain and DNA binding domain fusions
[1] = biological target: T1, ARF6 (auxin response factor 6), yeast two-hybrid fusion (Arabidopsis thaliana)
[2] = biological target: ARF6 D (DNA binding domain of ARF6), yeast two-hybrid fusion (Arabidopsis thaliana)
[3] = biological target: ARF6 M (middle domain of ARF6), yeast two-hybrid fusion (Arabidopsis thaliana)

Row | binding [1] | binding [2] | binding [3] | Molecule
1 | binds |  |  | C-terminal domain of BZR1, yeast two-hybrid fusion (Arabidopsis thaliana) (domain or fragment)
2 |  | binds weakly | binds | RGA-C (RGA with deletion of N-terminal 208 amino acids), yeast two-hybrid fusion (domain or fragment, UniProt Q9SLH3 209-587) VILVDSQENGVRLVHALMACAEAIQQNNLTLAEALVKQIGCLAVSQAGAMRKVATYFAEALARRIYRLSPPQNQIDHCLSDTLQMHFYETCPYLKFAHFTANQAILEAFEGKKRVHVIDFSMNQGLQWPALMQALALREGGPPTFRLTGIGPPAPDNSDHLHEVGCKLAQLAEAIHVEFEYRGFVANSLADLDASMLELRPSDTEAVAVNSVFELHKLLGRPGGIEKVLGVVKQIKPVIFTVVEQESNHNGPVFLDRFTESLHYYSTLFDSLEGVPNSQDKVMSEVYLGKQICNLVACEGPDRVERHETLSQWGNRFGSSGLAPAHLGSNAFKQASMLLSVFNSGQGYRVEESNGCLMLGWHTRPLITTSAWKLSTAAY

No constants are given. Whether binding was seen depends on the method and setting. A result given as binding can be weak or reduced; the word gives no strength. Sequences can lack the tags named with a protein.
